This note sets out measurements from the supplement of paper PMC12595434, “Development of retinoid nuclear receptor pathway antagonists through targeting aldehyde dehydrogenase 1A3” (iScience, 2025).

Sequences of proteins named here, by UniProt entry; tags and fusion partners are left off. A change or cut given only in a name is not applied to a line headed by its entry.
UniProt Q99717: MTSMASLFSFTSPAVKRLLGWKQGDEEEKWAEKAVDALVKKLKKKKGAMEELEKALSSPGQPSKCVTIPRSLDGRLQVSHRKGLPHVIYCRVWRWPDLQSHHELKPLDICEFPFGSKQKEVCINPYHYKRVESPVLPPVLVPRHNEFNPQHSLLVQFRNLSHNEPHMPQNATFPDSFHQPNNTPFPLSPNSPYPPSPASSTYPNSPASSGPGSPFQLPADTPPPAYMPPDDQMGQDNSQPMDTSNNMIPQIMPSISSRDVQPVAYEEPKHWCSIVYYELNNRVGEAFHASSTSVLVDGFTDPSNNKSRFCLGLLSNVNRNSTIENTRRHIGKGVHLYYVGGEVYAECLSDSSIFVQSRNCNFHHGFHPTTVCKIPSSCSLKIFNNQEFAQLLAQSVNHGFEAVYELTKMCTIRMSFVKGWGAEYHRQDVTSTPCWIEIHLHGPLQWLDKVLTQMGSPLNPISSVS
UniProt Q9BX40: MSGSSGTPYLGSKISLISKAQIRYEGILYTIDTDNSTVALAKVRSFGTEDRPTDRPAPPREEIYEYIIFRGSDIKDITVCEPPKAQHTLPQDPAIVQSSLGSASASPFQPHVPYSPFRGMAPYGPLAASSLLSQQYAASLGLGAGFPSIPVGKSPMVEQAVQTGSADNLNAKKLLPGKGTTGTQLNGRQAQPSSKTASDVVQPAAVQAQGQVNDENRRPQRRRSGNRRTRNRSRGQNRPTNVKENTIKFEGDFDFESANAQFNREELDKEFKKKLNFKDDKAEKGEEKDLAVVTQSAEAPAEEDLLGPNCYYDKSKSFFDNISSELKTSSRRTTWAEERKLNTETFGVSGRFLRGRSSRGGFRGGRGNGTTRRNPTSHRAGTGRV
UniProt Q99832: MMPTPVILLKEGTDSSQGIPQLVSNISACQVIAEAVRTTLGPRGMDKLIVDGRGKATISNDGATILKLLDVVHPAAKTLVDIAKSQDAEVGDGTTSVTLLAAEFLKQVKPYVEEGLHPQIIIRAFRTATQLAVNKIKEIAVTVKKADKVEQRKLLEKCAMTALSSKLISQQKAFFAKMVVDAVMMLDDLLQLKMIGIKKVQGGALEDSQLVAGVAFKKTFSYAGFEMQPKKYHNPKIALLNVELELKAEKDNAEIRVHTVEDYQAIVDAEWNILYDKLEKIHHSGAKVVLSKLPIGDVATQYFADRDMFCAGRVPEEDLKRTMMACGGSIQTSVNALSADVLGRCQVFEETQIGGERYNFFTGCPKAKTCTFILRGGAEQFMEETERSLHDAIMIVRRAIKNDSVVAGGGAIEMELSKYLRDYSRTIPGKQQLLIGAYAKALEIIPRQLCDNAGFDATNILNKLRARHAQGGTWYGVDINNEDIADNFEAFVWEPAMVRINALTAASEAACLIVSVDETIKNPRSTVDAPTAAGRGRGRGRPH
UniProt Q99766: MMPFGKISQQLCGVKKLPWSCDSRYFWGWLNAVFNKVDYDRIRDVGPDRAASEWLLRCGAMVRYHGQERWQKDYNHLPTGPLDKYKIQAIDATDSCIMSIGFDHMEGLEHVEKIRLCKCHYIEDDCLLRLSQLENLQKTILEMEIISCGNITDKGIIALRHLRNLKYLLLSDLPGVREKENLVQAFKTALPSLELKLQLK
UniProt Q9BWT3: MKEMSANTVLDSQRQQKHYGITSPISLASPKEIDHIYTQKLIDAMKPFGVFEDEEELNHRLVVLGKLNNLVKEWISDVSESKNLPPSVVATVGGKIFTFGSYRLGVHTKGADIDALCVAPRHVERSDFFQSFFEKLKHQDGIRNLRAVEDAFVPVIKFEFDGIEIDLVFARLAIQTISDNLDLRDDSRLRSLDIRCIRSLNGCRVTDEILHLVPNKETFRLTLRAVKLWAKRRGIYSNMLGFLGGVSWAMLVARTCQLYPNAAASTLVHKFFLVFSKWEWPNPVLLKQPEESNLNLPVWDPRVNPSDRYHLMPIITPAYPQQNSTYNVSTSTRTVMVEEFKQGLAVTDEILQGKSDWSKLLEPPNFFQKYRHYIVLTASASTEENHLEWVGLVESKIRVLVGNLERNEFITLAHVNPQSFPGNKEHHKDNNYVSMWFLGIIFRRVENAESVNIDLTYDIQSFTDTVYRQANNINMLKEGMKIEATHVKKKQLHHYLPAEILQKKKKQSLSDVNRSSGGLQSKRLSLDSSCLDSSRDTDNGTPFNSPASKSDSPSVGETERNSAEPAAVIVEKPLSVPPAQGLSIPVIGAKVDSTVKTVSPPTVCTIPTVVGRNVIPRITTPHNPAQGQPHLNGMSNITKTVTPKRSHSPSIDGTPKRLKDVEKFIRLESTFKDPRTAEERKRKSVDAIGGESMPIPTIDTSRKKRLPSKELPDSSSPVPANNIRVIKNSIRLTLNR
UniProt Q9BRZ2: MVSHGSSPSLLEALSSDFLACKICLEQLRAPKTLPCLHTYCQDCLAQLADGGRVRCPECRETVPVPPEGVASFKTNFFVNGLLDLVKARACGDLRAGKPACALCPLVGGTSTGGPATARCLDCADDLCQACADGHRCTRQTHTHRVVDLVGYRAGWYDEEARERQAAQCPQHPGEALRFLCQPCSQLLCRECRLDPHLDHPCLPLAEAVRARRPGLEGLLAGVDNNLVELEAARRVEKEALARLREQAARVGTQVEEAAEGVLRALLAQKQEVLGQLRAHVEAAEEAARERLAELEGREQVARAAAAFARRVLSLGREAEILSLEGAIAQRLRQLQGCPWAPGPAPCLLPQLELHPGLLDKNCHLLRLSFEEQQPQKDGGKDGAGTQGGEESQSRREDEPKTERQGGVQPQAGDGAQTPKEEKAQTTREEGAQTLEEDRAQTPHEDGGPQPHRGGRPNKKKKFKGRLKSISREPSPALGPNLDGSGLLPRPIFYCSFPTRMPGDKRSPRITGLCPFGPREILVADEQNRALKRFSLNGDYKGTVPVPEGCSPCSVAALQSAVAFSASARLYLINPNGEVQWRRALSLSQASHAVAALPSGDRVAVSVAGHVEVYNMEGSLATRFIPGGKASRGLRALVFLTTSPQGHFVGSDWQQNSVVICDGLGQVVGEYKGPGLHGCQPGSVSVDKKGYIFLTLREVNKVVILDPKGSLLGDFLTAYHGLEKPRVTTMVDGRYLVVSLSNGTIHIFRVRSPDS
UniProt Q9BSW2: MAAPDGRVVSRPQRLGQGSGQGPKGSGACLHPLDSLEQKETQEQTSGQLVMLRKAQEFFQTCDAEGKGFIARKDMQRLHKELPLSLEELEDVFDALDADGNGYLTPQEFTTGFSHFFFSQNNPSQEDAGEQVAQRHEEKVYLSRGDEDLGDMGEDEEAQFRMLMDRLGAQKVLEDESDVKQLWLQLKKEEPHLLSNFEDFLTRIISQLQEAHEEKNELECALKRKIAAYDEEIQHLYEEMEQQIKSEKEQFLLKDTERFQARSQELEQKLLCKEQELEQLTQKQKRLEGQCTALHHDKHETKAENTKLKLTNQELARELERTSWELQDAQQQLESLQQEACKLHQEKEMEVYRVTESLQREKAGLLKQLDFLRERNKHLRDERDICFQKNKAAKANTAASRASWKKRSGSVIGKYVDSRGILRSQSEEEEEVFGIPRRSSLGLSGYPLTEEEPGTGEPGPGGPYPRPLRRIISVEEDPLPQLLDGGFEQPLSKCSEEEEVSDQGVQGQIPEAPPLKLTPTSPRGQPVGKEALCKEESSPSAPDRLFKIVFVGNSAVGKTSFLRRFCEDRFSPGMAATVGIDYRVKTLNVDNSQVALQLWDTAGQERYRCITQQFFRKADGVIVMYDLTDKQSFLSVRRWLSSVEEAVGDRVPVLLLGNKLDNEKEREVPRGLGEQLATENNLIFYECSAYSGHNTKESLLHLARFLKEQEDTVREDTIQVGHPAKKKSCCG
UniProt Q9BTT6: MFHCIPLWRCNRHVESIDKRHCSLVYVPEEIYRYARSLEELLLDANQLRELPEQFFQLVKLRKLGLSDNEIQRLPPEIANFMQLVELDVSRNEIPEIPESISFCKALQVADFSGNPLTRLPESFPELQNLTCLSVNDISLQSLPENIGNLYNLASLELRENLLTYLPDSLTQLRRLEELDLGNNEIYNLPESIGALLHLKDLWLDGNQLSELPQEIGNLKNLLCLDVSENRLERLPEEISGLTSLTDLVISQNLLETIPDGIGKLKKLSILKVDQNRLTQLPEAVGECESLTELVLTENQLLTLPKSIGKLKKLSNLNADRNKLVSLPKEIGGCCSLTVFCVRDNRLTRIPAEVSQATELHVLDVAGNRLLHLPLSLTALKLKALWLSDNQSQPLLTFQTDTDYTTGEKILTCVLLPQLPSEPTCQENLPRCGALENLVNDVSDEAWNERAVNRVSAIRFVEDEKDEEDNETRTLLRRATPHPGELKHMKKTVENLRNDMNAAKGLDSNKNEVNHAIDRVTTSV
UniProt Q9BQE3, whole entry: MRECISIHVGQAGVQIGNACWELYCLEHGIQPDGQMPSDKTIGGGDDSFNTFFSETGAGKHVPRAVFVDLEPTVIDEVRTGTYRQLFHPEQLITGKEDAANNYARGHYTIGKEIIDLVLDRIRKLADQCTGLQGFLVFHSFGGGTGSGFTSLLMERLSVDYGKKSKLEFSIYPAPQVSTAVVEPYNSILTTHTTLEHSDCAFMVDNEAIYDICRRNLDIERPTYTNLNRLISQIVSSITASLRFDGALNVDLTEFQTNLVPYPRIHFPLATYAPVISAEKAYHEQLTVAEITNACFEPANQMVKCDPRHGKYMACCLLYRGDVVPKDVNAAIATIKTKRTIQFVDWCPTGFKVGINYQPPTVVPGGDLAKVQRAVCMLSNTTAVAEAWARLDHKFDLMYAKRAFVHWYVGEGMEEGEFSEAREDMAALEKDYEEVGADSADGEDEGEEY
UniProt Q9BWT6: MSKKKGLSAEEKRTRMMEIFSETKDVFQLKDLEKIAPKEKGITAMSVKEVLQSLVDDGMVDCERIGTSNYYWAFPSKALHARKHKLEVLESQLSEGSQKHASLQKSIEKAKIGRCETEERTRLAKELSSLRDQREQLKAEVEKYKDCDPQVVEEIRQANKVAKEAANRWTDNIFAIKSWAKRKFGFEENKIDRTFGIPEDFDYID
UniProt Q9BX79: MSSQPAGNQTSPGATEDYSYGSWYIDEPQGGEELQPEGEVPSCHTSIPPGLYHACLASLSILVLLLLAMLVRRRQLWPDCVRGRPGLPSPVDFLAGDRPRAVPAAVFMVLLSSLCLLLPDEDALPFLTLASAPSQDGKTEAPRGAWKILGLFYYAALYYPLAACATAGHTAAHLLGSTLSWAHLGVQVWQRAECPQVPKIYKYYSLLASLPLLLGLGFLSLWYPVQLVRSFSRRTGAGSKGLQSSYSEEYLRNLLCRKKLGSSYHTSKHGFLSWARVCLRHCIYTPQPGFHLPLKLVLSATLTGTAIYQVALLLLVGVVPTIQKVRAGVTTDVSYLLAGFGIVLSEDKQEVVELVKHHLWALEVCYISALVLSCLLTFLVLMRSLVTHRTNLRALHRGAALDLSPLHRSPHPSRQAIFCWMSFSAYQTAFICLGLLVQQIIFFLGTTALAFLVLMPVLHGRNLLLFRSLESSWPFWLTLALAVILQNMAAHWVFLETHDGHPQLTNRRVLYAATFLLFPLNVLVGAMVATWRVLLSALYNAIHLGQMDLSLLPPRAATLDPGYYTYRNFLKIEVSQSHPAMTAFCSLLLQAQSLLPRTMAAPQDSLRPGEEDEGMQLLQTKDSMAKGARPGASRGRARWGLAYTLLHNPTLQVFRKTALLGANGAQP
UniProt Q9BUA3: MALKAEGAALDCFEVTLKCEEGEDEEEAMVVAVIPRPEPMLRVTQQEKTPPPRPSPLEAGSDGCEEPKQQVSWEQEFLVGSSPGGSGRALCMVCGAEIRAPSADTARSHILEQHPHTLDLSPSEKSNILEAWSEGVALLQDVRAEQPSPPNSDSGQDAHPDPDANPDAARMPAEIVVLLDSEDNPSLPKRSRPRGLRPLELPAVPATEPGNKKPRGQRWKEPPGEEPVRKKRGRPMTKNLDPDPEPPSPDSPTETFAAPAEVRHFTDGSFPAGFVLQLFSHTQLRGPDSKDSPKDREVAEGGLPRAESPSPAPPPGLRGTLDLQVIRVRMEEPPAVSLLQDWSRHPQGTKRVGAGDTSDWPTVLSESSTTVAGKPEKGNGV
UniProt Q9BW62: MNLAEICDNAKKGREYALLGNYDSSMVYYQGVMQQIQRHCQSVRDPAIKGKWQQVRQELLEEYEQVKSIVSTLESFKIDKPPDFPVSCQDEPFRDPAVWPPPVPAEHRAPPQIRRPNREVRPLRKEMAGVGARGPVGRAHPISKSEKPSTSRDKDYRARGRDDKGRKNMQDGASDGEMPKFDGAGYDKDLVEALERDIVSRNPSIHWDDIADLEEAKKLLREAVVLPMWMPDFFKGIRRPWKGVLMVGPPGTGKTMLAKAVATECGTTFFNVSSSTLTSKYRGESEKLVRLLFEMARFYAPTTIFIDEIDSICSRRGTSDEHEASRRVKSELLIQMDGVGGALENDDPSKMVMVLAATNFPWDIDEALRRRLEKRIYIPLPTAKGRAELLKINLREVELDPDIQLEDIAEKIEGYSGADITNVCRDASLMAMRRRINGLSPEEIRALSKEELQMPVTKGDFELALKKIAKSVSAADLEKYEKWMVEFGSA

This is one part of the list. This is a noisy data set.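 Tm was set to 64 °C where no melting was found, and many curves are irregular.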

Compound in this assay: CCc1cnccc1C(=O)Nc1cc2c(cc1F)NC(=O)CC2
In words: melting temperature shift (DMSO Tm minus MBE1-treated Tm) in cellular thermal proteome profiling; higher = less thermal stabilization by MBE1 (negative = stabilized by MBE1). To be noted: A375.

Regarding CPNE1 (UniProt Q99829), the melting temperature shift was -0.596 °C (MBE1 concentration: 100 nM) and -0.256 °C (MBE1 concentration: 1 uM).
Turning to UniProt Q99717, the melting temperature shift was -0.606 °C (MBE1 concentration: 100 nM) and -0.459 °C (MBE1 concentration: 1 uM).
Consider LSM14B (UniProt Q9BX40), for which the melting temperature shift (MBE1 concentration: 100 nM) was found to be 0.325 °C and the melting temperature shift (MBE1 concentration: 1 uM) is -0.333 °C.
For NDC1 (UniProt Q9BTX1), in that order: -0.195 °C and 0.434 °C.
With CNPY3 (UniProt Q9BT09), the melting temperature shift by setting is: (MBE1 concentration: 100 nM) -2.4 °C; (MBE1 concentration: 1 uM) -2.93 °C.
For CCT7 (UniProt Q99832), in that order: -0.785 °C and 0.61 °C.
The corresponding values for MPHOSPH6 (UniProt Q99547) are 0.929 °C and -0.11 °C.
Regarding UniProt Q99766, the melting temperature shift is, setting by setting: (MBE1 concentration: 100 nM) 0.708 °C; (MBE1 concentration: 1 uM) 0.391 °C.
For MYBBP1A (UniProt Q9BQG0), in that order: -0.513 °C and -0.0513 °C.
Regarding PAPOLG (UniProt Q9BWT3), the melting temperature shift came to 6.16 °C (MBE1 concentration: 100 nM) and 0.519 °C (MBE1 concentration: 1 uM).
On to TRIM56 (UniProt Q9BRZ2), for which the melting temperature shift is 0.444 °C (MBE1 concentration: 100 nM) and -0.0366 °C (MBE1 concentration: 1 uM).
For UniProt Q9BSW2, in that order: 0.843 °C and -0.22 °C.
The corresponding values for UniProt Q99767 are 0.0565 °C and -0.169 °C.
For GNB1L (UniProt Q9BYB4), in that order: -1.7 °C and 0.898 °C.
Consider UniProt Q9BWJ5, for which the melting temperature shift by setting is: (MBE1 concentration: 100 nM) -0.183 °C; (MBE1 concentration: 1 uM) 0.892 °C.
The corresponding values for UniProt Q9BTT6 are 1.74 °C and 1.08 °C.
As to TUBA1C (UniProt Q9BQE3), the melting temperature shift runs as follows: (MBE1 concentration: 100 nM) 0.751 °C; (MBE1 concentration: 1 uM) 0.905 °C.
For MND1 (UniProt Q9BWT6), in that order: -1.74 °C and -1.99 °C.
For UniProt Q99973, in that order: -0.599 °C and 0.824 °C.
For PELO (UniProt Q9BRX2), the melting temperature shift runs as follows: (MBE1 concentration: 100 nM) -0.333 °C; (MBE1 concentration: 1 uM) -0.436 °C.
The corresponding values for UniProt Q9BX79 are -2.26 °C and -3.48 °C.
As to UniProt Q9BUA3, the melting temperature shift was -2.69 °C (MBE1 concentration: 100 nM) and 0.44 °C (MBE1 concentration: 1 uM).
Take KATNAL1 (UniProt Q9BW62): the melting temperature shift by setting is: (MBE1 concentration: 100 nM) -0.342 °C; (MBE1 concentration: 1 uM) 0.58 °C.
HAUS7 (UniProt Q99871): the melting temperature shift (MBE1 concentration: 100 nM) was -0.812 °C and the melting temperature shift (MBE1 concentration: 1 uM) is -0.423 °C.
